Data as given in patent publication US10610506B2 (UCL Business PLC, priority 2004, dated 2020).
At least one structure is not confirmed: it was looked up by name or label, or the drawing left a doubt.

Test system: neutrophils
Assay: Phagotest neutrophil phagocytosis, blood incubated with ammonia and amino acids
Format: cell-based, human
Settings: blood incubated 1 hour with ammonia and selected amino acid (FIG. 4)
Experimental: Methods for Measurement of Neutrophil Phagocytosis and oxidative burst Phagotest: Heparinised whole blood was incubated with opsonised FITC-labelled E coil and CD16. The cells were then analysed by flow cytometry (FACScan Becton Dickinson), gated through forward and side scatter and subsequently assessed on the basis of R-phycoerythrin (PE) [Immunotech, Marseille, France] flurochrome expression to identify CD16 positive cells. The gated population was then assessed for the presence of FITC-labelled bacteria.
Blood was collected from healthy volunteers (n=15) and incubated for 1 hour with increasing concentrations of ammonia. The ability of the neutrophils to phagocytose bacteria was measured using the Phagotest and Neutrophil chemotaxis assays. 10 ng/ml IL-8 was used in the Neutrophil chemotaxis assay.
Blood was collected from healthy volunteers (n=15) and incubated for 1 hour with ammonia and selected amino acids. The ability of the neutrophils to phagocytose bacteria was measured using the Phagotest assay.

N[C@@H](CC(=O)O)C(=O)O [aspartate]
ammonia-induced reduction in neutrophil phagocytosis: made worse
